Source: US10138238B2, “Pesticidally active polycyclic derivatives with sulfur containing substituents” (Syngenta Participations AG, priority 2015, dated 2018)
Some of these results come from one statement about several compounds together.

tested on: Aedes aegypti (Yellow Fever Mosquito); experiment: Example B11: Aedes aegypti adult females, treated plates; type: in vivo; conditions: 200 ppm in ethanol; after 48 h and/or 24 h

SMILES	control of Aedes aegypti
CCS(=O)(=O)c1ccc(C2CC2)nc1-c1nc2cc(SC(F)(F)F)ncc2n1C [Compound P13, 2-(6-cyclopropyl-3-ethylsulfonyl-2-pyridyl)-3-methyl-6-(trifluoromethylsulfanyl)imidazo[4,5-c]pyridine]	at least 80%
CCS(=O)(=O)c1ccc(C2CC2)nc1-c1nc2cc(C(F)(F)F)nnc2n1C [Compound P14, 6-(6-cyclopropyl-3-ethylsulfonyl-2-pyridyl)-7-methyl-3-(trifluoromethyl)imidazo[4,5-c]pyridazine]	at least 80%
CCS(=O)(=O)c1ccc(C2CC2)nc1-c1nc2cc(C(F)(F)F)ncc2n1C [Compound P15, 2-(6-cyclopropyl-3-ethylsulfonyl-2-pyridyl)-3-methyl-6-(trifluoromethyl)imidazo[4,5-c]pyridine]	at least 80%
CCS(=O)(=O)c1ccc(-c2ncccn2)nc1-c1nc2cc(SC(F)(F)F)ncc2n1C [Compound P10, 2-(3-ethylsulfonyl-6-pyrimidin-2-yl-2-pyridyl)-3-methyl-6-(trifluoromethylsulfanyl)imidazo[4,5-c]pyridine]	at least 80%
CCS(=O)(=O)c1ccc(-n2ccc(C(F)(F)F)n2)nc1-c1nc2cc(SC(F)(F)F)ncc2n1C [Compound P9, 2-[3-ethylsulfonyl-6-[3-(trifluoromethyl)pyrazol-1-yl]-2-pyridyl]-3-methyl-6-(trifluoromethylsulfanyl)imidazo[4,5-c]pyridine]	at least 80%
CCS(=O)(=O)c1ccc(-n2ccc(Cl)n2)nc1-c1nc2cc(SC(F)(F)F)ncc2n1C [Compound P11]	at least 80%
